PubChem BioAssay AID504784 – Drosophila RNAi Screening Center – 2011

Screen: 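Fly genes whose silencing alters how much lipid cells keep in droplets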 (primary screen)
System: Drosophila Kc167 embryonic cells
Reagent: long dsRNA against Drosophila genes, about 250 ng dsRNA per well
Timing: 4 days
Challenge: cells fed 400 µM oleic acid bound to BSA
Detection: 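Cells imaged and segmented; ratio of lipid droplet area to nuclear area, log-transformed, then normalised as a B-score over the screen; higher means more stored lipid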
Direction: droplet/nuclear area B-score: higher = more stored lipid (overstorage)
The screen tested about 17,000 reagents; below is a random part of those that have a named target and a result. 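Each column is one replicate's B-score; the combined score over replicates was not deposited, so single values may mislead.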 Names joined by + are all predicted targets of the reagent. Further read-outs or replicates are left out here.

gene,amplicon,"droplet/nuclear area B-score, replicate 1","droplet/nuclear area B-score, replicate 2"
CG43689,DRSC18383,2.16,2.06
CG43689,DRSC22467,1.47,-0.0401
CG43689,DRSC23070,-0.022,-0.57
CG17839,DRSC10290,1.44,-0.434
CG17839,DRSC10291,-2.15,0.533
CG8539,DRSC10988,-0.16,-1.01
CG8539,DRSC21798,1.85,0.333
Sce,DRSC16825,-0.0529,
dao,DRSC01960,1.95,0.351
rtp,DRSC12132,2.31,-0.0589
Gem4b + Gem4c,DRSC17294,-0.113,0.782
CG12439,DRSC02168,0.692,-0.643
CG10650,DRSC02085,0.163,0.412
Cnx99A + Cnx14D,DRSC16610,-0.326,0.0579
CG15615,DRSC06568,2.72,0.97
CG9570,DRSC20687,-0.0293,0.835
CG13170,DRSC06298,0.916,1.52
Cpr65Ea,DRSC11027,-0.638,-1.57
CG33143,DRSC04151,0.106,1.72
CG33143,DRSC04454,0.232,0.322
CG13192,DRSC06317,0.686,-1.25
Ctu2,DRSC02024,0.397,1.58
CG42557 + CG42558,DRSC13963,0.317,-1.93
CG42557 + CG42558,DRSC16329,-1.11,-0.334
CG42324,DRSC08431,0.266,0.679
CG42324,DRSC08432,1.07,1.16
CG43867,DRSC17836,0.337,-0.887
CG43867,DRSC17837,-3.25,2.49
CG43867,DRSC17943,1.66,-0.723
wls,DRSC10605,-0.344,1.71
Hcf,DRSC17143,1.94,1.36
CG42336,DRSC05273,0.108,-0.739
CG42336,DRSC06332,0.134,-1.6
CG42336,DRSC06333,-0.789,-1.26
CG5078,DRSC11762,-0.456,-0.00275
AANATL3,DRSC02089,1.56,-0.143
Cp7Fc,DRSC18035,-0.0377,-0.293
Nmda1,DRSC07479,-0.578,-1.24
CG33309,DRSC01421,0.639,-0.709
pgc,DRSC04099,-1.54,
GCS1,DRSC19744,-0.171,0.243
RYBP,DRSC04117,-1.7,-1.11
CG43367,DRSC08299,-0.0295,0.348
CG43367,DRSC08301,0.25,1.1
CG43367,DRSC08309,0.188,0.522
CG31226,DRSC21724,-0.641,-0.372
CG3770,DRSC04416,-2.13,-1.75
Andorra,DRSC19475,0.668,1.5
CG10663,DRSC09770,-0.0252,0.799
CG31792,DRSC02604,0.00229,0.775
term,DRSC21730,-0.996,0.645
CG14190,DRSC19545,1,1.06
Tap42,DRSC02967,-1.42,
CG5793,DRSC15874,0.00677,0.967
CG13615,DRSC14618,-0.402,1.07
Bgb,DRSC08148,-0.195,
Dhc1,DRSC16503,-0.586,0.139
Obp56f,DRSC22270,-1.31,0.964
CG11842,DRSC14400,-0.169,
CG33332,DRSC15504,3.62,0.931
Gad1,DRSC08661,0.348,-0.409
RNaseP:RNA,DRSC22967,1.99,3.49
MagR,DRSC20092,4.06,4.06
lark,DRSC11362,0.0516,1.68
CG10553,DRSC14254,0.381,-0.0263
Mip,DRSC10639,-3.55,0.74
shams,DRSC16590,-1.11,-0.971
nAChRalpha4,DRSC11925,1.85,-0.547
Cyp6a9,DRSC07385,0.116,0.0986
CG6933,DRSC10751,-2.57,-1.24
Mys45A,DRSC07067,2.17,3.17
CG4546,DRSC15593,-2.31,0.0589
CG10598,DRSC19358,0.621,0.000427
CG14110,DRSC10113,0.835,-0.208
CG11449,DRSC11662,-0.195,0.67
mus201 + Chrac-14,DRSC03568,-0.19,0.118
mus201 + Chrac-14,DRSC03575,0.508,-0.116
CG9609,DRSC20199,0.147,-0.457
Nup153,DRSC19904,-2.07,-2.32
hts,DRSC07629,-0.0215,-1.81
CG34355,DRSC13639,0,-1.3
CG34355,DRSC14520,-0.116,-0.0309
CG34355,DRSC14668,-0.918,0.263
CG34355,DRSC21687,0.116,-0.00303

Entries listed so far whose target name starts with S or s (2):
gene,amplicon,"droplet/nuclear area B-score, replicate 1","droplet/nuclear area B-score, replicate 2"
Sce,DRSC16825,-0.0529,
shams,DRSC16590,-1.11,-0.971
